PubChem BioAssay AID1259260, Sanger Institute – 2017
The whole screen tested 794 reagents; this is a random part of them. 13 of all reagents (1.6%) count as active. 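Calls reflect only knock-down without drug; synergy above 0.15 was grouped apart and does not change the call.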 Unmarked entries are inactive. Not all columns of the deposit are shown. Not given: the amount of reagent, the time to read-out.

- Purpose: 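Kinome knock-down with three anchor drugs to find synergy partners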 (primary screen)
- Cells: human NCI-H716 colorectal cancer cells
- Knock-down reagent: siRNA pool against human genes
- Challenge: anchor drugs BYL719 (alpelisib) 1 µM, cetuximab 5 µg/ml or trametinib 10 nM, each at a dose chosen to harm viability only mildly; DMSO vehicle for the knock-down-alone arm
- Measured: 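Mean viability over replicates against non-targeting siRNA, robust z-score without drug, and per-drug synergy comparing combined with single treatments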
- Reading the numbers: viability robust z-score, siRNA alone: higher = more surviving cells; below -3 called essential
- Hit rule: 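Essential when the robust z-score for knock-down alone falls below -3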
- Calls: active = essential (knock-down alone lowers viability); inactive = no essential effect

PRAG1 (GeneID 157285) [SID152147410] | viability robust z-score, siRNA alone = 0.48
PAK1 (GeneID 5058) [SID135620692] | viability robust z-score, siRNA alone = 0.602
MAP3K21 (GeneID 84451) [SID135620779] | viability robust z-score, siRNA alone = 0.602
COQ8B (GeneID 79934) [SID56478994] | viability robust z-score, siRNA alone = 0.602
ITPK1 (GeneID 3705) [SID56479109] | viability robust z-score, siRNA alone = 0.602
ERBB4 (GeneID 2066) [SID135620618] | viability robust z-score, siRNA alone = 0.602
CKMT2 (GeneID 1160) [SID152154085] | viability robust z-score, siRNA alone = 0.602
CSNK2A2 (GeneID 1459) [SID56478861] | viability robust z-score, siRNA alone = 0.602
CLK3 (GeneID 1198) [SID56478875] | viability robust z-score, siRNA alone = 0.362
RFK (GeneID 55312) [SID152154046] | viability robust z-score, siRNA alone = -0.226
ADK (GeneID 132) [SID56478860] | viability robust z-score, siRNA alone = 0.602
NF1 (GeneID 4763) [SID152155944] | viability robust z-score, siRNA alone = 0.602
GUCY2C (GeneID 2984) [SID152148747] | viability robust z-score, siRNA alone = 0.602
PRKCB (GeneID 5579) [SID56478724] | viability robust z-score, siRNA alone = -0.012
PRKCI (GeneID 5584) [SID152150879] | viability robust z-score, siRNA alone = 0.602
TEK (GeneID 7010) [SID152152932] | viability robust z-score, siRNA alone = 0.287
PKN2 (GeneID 5586) [SID152156352] | viability robust z-score, siRNA alone = -2.11
NRBP1 (GeneID 29959) [SID135620974] | viability robust z-score, siRNA alone = 0.602
PRKAB1 (GeneID 5564) [SID134312708] | viability robust z-score, siRNA alone = 0.602

Not a retest: 3 of the entries above.
ADK (GeneID 132) [SID56478860] | viability robust z-score, siRNA alone = 0.602
NF1 (GeneID 4763) [SID152155944] | viability robust z-score, siRNA alone = 0.602
GUCY2C (GeneID 2984) [SID152148747] | viability robust z-score, siRNA alone = 0.602
